Source: PubChem BioAssay AID1487 (National Center for Advancing Translational Sciences (NCATS), 2009)
This is one part of the list. The main result of the screen is listed elsewhere. These columns were measured beside it and carry no call. Compounds called inactive in the main read-out are mostly missing here. Potencies come from curve fits of mixed quality, noted in brackets.

Test: qHTS Assay for Modulators of Lamin A Splicing
Conditions: HeLa LMNA splicing GFP/RFP minigene ratio, 48 h
How it was run: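 S3 HeLa stable clones carrying a lamin A-EGFP splicing minigene plus DsRed2 were seeded at 600 cells/well in Opti-MEM with 2% FBS, pin-dosed and incubated 48 h at 37°C. Acumen cytometry (488 nm) gave the GFP/RFP total-intensity ratio.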

[1] = measured here: RFP viability control channel
[2] = measured here: GFP splicing reporter channel

For `O=C(O)CC(NC(=O)C1CCCCC1)c1cc([N+](=O)[O-])ccc1Cl` (stereo unspecified), the AC50 [1] was 1.26 µM [falling, full curve, poor fit].
In the case of `COc1ccc(N=C2SC(C(=O)Nc3ccc(F)cc3)CC(=O)N2C)cc1` (stereo unspecified), the AC50 [1] is reported as 0.00316 µM [falling, full curve, poor fit].
For `CCOC(=O)c1ccc(NC(=O)C(C)Sc2nc(O)c(-c3ccccc3)c(=O)[nH]2)cc1` (stereo unspecified), the AC50 [2] was 0.02 µM [falling, full curve, poor fit] and the AC50 [1] was 0.01 µM [falling, full curve, poor fit].
For `Cc1ccc(-n2nc(C)c(C3C(C#N)=C(N)OC4=C3C(=O)CC(C)(C)C4)c2Cl)cc1` (stereo unspecified), the AC50 [1] was 35.5 µM [rising, single point].
With `Cc1cc(C)cc(NC(=O)/C=C/c2ccc([N+](=O)[O-])s2)c1` the AC50 [1] was 35.5 µM [falling, single point].
For `COc1ccc2c(c1)-c1c(ssc1=S)C(C)(C)N2S(=O)(=O)c1ccc(C)cc1`, the AC50 [2] was 10 µM [rising, partial curve, poor fit] and the AC50 [1] was 8.91 µM [rising, partial curve].
For `COc1ccccc1Nc1nn2c(=O)c3ccc(C(=O)NCc4cccs4)cc3nc2s1`, the AC50 [2] was 3.55 µM [falling, partial curve] and the AC50 [1] was 7.08 µM [falling, full curve].
For `COCCNC(=O)NC1(C(F)(F)F)Oc2ccc(Cl)cc2O1` (stereo unspecified), the AC50 [1] was 35.5 µM [rising, single point].
With `COc1ccc(N2CCN(C(=O)c3ccc(C)c(NC(=O)c4nsc5ccccc45)c3)CC2)cc1` the AC50 [2] was 35.5 µM [rising, single point] and the AC50 [1] was 35.5 µM [rising, single point].
In the case of `COc1ccc(-n2nnnc2SCC(=O)N2C(C)CCCC2C)c(OC)c1` (stereo unspecified), the AC50 [2] is reported as 20 µM [rising, single point] and the AC50 [1] is reported as 22.4 µM [rising, single point].
With `C[C@@](Cc1ccc(O)c(O)c1)(NN)C(=O)O` the AC50 [1] was 12.6 µM [rising, single point].
In the case of `Cc1ccc(C)c(NC(=O)c2ccccc2O)c1`, the AC50 [1] is reported as 17.8 µM [rising, partial curve, poor fit].
In the case of `Cc1nnc(SCc2ccc(C(=O)c3ccc(Cl)cc3)o2)n1-c1ccccc1`, the AC50 [1] is reported as 12.6 µM [rising, single point].
In the case of `Cc1ccc(NC(=O)c2ccc(OCC3CCCO3)cc2)cc1` (stereo unspecified), the AC50 [1] is reported as 15.8 µM [rising, single point].
With `Cc1ncc([N+](=O)[O-])n1Cc1cccc2ccccc12` the AC50 [2] was 10 µM [rising, single point].
With `C/C(=N\NC(=O)c1nn(C)cc1Br)c1ccc(NC(=O)c2ccncc2)cc1` the AC50 [2] was 12.6 µM [rising, partial curve] and the AC50 [1] was 8.91 µM [rising, partial curve, poor fit].
In the case of `Cc1ccc(S(=O)(=O)c2cnc(SCC(=O)Nc3cc(C)cc(C)c3)nc2N)cc1`, the AC50 [2] is reported as 0.0355 µM [falling, full curve] and the AC50 [1] is reported as 0.0224 µM [falling, full curve, poor fit].
In the case of `CCCNC(=O)c1ccc2c(c1)C1C3CCC(C3)C1C(c1ccccc1)N2` (stereo unspecified), the AC50 [2] is reported as 12.6 µM [rising, single point] and the AC50 [1] is reported as 22.4 µM [rising, single point].
For `Cn1c(=O)[nH]c(=O)c2[nH]c(N(Cc3ccccc3)Cc3ccccc3)nc21`, the AC50 [2] was 6.31 µM [rising, partial curve].
With `COc1ccc2nc(SCC(=O)Nc3ccc4c(c3)CCC4)[nH]c2c1` the AC50 [2] was 12.6 µM [rising, partial curve].
In the case of `Cc1cccc2nc(-c3ccccc3)nc(N3CCC(O)(c4ccc(Cl)cc4)CC3)c12`, the AC50 [2] is reported as 20 µM [rising, single point] and the AC50 [1] is reported as 25.1 µM [rising, partial curve].
With `COc1ccc(Nc2ncc3nc(-c4cccs4)c(=O)n(Cc4cccc(OC)c4)c3n2)cc1` the AC50 [1] was 15.8 µM [falling, partial curve].
In the case of `O=C(Nc1cc(Cl)cc(Cl)c1)c1ccc(F)c(S(=O)(=O)NC2CCCC2)c1`, the AC50 [2] is reported as 3.16 µM [rising, single point].
With `N#Cc1nc(-c2ccco2)oc1N1CCN(Cc2ccccc2)CC1` the AC50 [2] was 15.8 µM [rising, single point] and the AC50 [1] was 22.4 µM [rising, single point].
With `CN(C)S(=O)(=O)c1cccc(NC(=S)NC(=O)C2CCCCC2)c1` the AC50 [2] was 12.6 µM [rising, partial curve] and the AC50 [1] was 22.4 µM [rising, partial curve].
For `CCOC(=O)c1c(C)sc2c1N(C(=O)CCl)c1cc(Cl)ccc1S2`, the AC50 [1] was 11.2 µM [falling, partial curve].
In the case of `CCOC(=O)N1CCC(NC(=O)C2CCN(c3ccc(N4CCOCC4)nn3)CC2)CC1`, the AC50 [1] is reported as 0.398 µM [falling, full curve, poor fit].
In the case of `CCCCN1C(=O)Cc2c1nc(N)c1c(N)nc(N(CCC)CCC)c(C#N)c21`, the AC50 [1] is reported as 20 µM [rising, single point].
With `O=C(c1ccc(F)cc1)N1CCN(c2ccc([N+](=O)[O-])c(N3CCCCC3)c2)CC1` the AC50 [2] was 20 µM [rising, single point] and the AC50 [1] was 25.1 µM [rising, single point].
For `O=C(NC1CCCCC1)C(c1cccnc1)N(C(=O)CCl)c1cccc(Cl)c1` (stereo unspecified), the AC50 [2] was 17.8 µM [falling, single point] and the AC50 [1] was 3.16 µM [falling, single point].
For `COc1ccc(NCC(=O)Nc2ccc(Br)cc2F)c(OC)c1`, the AC50 [2] was 10 µM [rising, partial curve, poor fit].
In the case of `COc1ccc(Oc2coc3cc(OCC(=O)N4CCCCC4)ccc3c2=O)cc1`, the AC50 [2] is reported as 17.8 µM [rising, partial curve, poor fit] and the AC50 [1] is reported as 22.4 µM [rising, single point].
For `CC1=CC(C)(C)Nc2ccc(OC(=O)CN3C(=O)c4cccc5cccc(c45)C3=O)cc21`, the AC50 [2] was 22.4 µM [falling, single point] and the AC50 [1] was 35.5 µM [falling, single point].
With `Nc1nc(-c2ccccc2)cc(-c2ccccc2O)n1` the AC50 [2] was 22.4 µM [falling, single point] and the AC50 [1] was 35.5 µM [falling, single point].
In the case of `CCCCCn1cnc2sc(CC)cc2c1=O`, the AC50 [2] is reported as 1.12 µM [rising, full curve, poor fit].
For `Cn1nc(-c2ccc(OCC(=O)Nc3cccnc3)cc2)c2ccccc2c1=O`, the AC50 [1] was 15.8 µM [rising, single point].
In the case of `Cc1ccc(Nc2cc(=O)n(C3CCCCC3)c(=O)[nH]2)cc1C`, the AC50 [2] is reported as 25.1 µM [falling, partial curve, poor fit].
With `Fc1ccccc1N1CCN(c2ncnc3[nH]ncc23)CC1` the AC50 [1] was 35.5 µM [rising, single point].
With `Cc1cc(O)c(NC(=S)NC(=O)c2ccc(-c3ccc(Cl)cc3)o2)cc1C` the AC50 [2] was 35.5 µM [falling, single point].
For `O=C(COc1ccc(Cl)cc1Br)N1CCN(c2ccccc2)CC1`, the AC50 [2] was 11.2 µM [rising, partial curve] and the AC50 [1] was 31.6 µM [rising, single point].
For `Cc1cc(C(=O)OCc2nnc(-c3ccccc3)o2)c(C)n1-c1ccccc1`, the AC50 [2] was 4.47 µM [rising, full curve] and the AC50 [1] was 10 µM [rising, partial curve].
For `Cc1c(-c2ccccc2)n[nH]c1C(=O)N=Nc1c(O)[nH]c2ccccc12`, the AC50 [1] was 35.5 µM [falling, single point].
With `O=c1c(-c2cc(F)cc(F)c2)nc2cnc(N3CCNCC3)nc2n1-c1ccccc1` the AC50 [2] was 17.8 µM [falling, single point] and the AC50 [1] was 5.62 µM [falling, partial curve].
For `COc1ccccc1-c1nc(NC2CC2)c2ccccc2n1`, the AC50 [2] was 12.6 µM [falling, single point].
With `CSc1cccc(-n2cc(-c3ccc4c(c3)OCO4)[nH]c2=O)c1` the AC50 [1] was 31.6 µM [rising, single point].
With `O=C(CSc1nnc(C2COc3ccccc3O2)o1)N1CCCc2ccccc21` (stereo unspecified) the AC50 [1] was 25.1 µM [rising, single point].
For `CN=c1sc2ccccc2n1CC(O)COc1ccccc1` (stereo unspecified), the AC50 [1] was 17.8 µM [rising, partial curve].
For `CC(C)CN(CC(C)C)C(=O)CC(=O)NC(=O)c1ccc(Cl)cc1`, the AC50 [2] was 35.5 µM [rising, single point] and the AC50 [1] was 31.6 µM [rising, single point].
With `O=C(CN1C(=O)NC(Cc2c[nH]c3ccccc23)C1=O)Nc1cccc(S(=O)(=O)N2CCCCCC2)c1` (stereo unspecified) the AC50 [1] was 20 µM [rising, partial curve].
For `Cn1c(SCC(=O)N2CCCc3ccccc32)ncc(C(=O)Nc2ccc(Cl)cc2)c1=O`, the AC50 [2] was 0.0224 µM [falling, full curve, poor fit] and the AC50 [1] was 2.24 µM [falling, partial curve, poor fit].
With `O=S(=O)(Nc1nc2ccccc2nc1Nc1cccc(S(=O)(=O)N2CCCCC2)c1)c1ccccc1` the AC50 [2] was 5.01 µM [rising, partial curve] and the AC50 [1] was 3.16 µM [rising, full curve].
For `Cc1ncc(CO)c(/C=N/NC(=O)c2ccc(Br)cc2)c1O`, the AC50 [1] was 11.2 µM [rising, partial curve, poor fit].
With `COc1ccc(S(=O)(=O)N(Cc2ccc(OC)c(OC)c2)Cc2ccco2)cc1` the AC50 [2] was 15.8 µM [rising, partial curve, poor fit] and the AC50 [1] was 17.8 µM [rising, partial curve].
